Drawing on article doi:10.1101/2024.06.03.596644, this text covers binding for one substance.

The target of this assay is T1, FBXO31, endogenous in mouse embryonic fibroblasts (mouse (endogenous in MEF)) (UniProt Q3TQF0).
T1 sequence: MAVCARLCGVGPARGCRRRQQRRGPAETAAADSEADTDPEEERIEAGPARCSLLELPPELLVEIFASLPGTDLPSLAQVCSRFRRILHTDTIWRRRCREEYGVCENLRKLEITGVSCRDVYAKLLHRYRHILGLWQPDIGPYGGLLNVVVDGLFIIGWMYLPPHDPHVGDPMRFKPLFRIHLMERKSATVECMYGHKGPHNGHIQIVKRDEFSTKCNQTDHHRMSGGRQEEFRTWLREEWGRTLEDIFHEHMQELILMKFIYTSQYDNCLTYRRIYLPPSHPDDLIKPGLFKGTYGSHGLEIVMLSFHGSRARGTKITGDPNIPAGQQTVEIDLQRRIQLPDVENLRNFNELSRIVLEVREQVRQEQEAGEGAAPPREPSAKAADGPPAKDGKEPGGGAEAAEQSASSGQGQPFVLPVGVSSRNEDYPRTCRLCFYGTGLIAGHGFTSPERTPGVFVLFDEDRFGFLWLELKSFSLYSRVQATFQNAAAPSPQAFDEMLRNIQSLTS
The assay is described as follows: co-IP.

Results are given in words; binding and its absence hold for the method and conditions named. Binding seen in cells or lysates may run through a third protein. Some binding calls cover weakened binding; strength is not graded here.

For “γH2AX, endogenous in mouse embryonic fibroblasts (from UniProt P27661 1-143)”, the binding entry is listed as “binds”.
